These are yes or no findings as the source states them, for the method shown. In cells and extracts the contact can be indirect. Some entries that bind do so weakly or less than the wild type.
What was measured:
[1] = biological target: Forkhead box protein o1 (Foxo1), endogenous in mouse bone marrow-derived macrophages (mouse (endogenous in BMMs)) (UniProt Q9R1E0); test: co-IP; immunoprecipitation from LPS-stimulated macrophages (BMMs) of WT mice; endogenous proteins
[2] = biological target: Forkhead box protein o1 (Foxo1), endogenous in mouse bone marrow-derived macrophages (mouse (endogenous in BMMs)) (UniProt Q9R1E0); test: FRET or BRET; immunofluorescence staining and FRET analysis of Nrf1 and Foxo1 in macrophages stimulated with LPS; signal in the nucleus
[3] = biological target: Foxo1 protein of the GST pull-down assay (UniProt Q9R1E0); test: pull-down; GST pull-down between Nrf1 and Foxo1 proteins; which one carried GST is not told

Sequences of proteins named here, by UniProt entry; tags and fusion partners are left off. A change or cut given only in a name is not applied to a line headed by its entry.
UniProt Q9R1E0: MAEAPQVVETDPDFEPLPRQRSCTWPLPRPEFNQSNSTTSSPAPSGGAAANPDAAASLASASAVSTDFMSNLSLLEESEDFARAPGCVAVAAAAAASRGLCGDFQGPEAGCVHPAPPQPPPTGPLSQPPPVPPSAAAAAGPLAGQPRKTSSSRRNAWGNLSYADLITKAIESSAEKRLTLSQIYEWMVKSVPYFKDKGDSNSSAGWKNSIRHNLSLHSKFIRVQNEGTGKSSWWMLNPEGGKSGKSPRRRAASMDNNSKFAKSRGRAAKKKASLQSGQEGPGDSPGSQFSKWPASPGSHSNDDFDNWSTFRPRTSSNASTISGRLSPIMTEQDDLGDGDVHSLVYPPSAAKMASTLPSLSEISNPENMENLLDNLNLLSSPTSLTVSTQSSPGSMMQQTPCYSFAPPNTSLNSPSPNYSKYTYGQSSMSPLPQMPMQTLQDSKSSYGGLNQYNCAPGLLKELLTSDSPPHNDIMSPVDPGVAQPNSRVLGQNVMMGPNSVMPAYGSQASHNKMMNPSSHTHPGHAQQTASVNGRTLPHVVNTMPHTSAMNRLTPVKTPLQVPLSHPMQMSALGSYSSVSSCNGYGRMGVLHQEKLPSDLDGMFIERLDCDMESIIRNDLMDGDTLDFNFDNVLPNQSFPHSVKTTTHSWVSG
UniProt Q61985: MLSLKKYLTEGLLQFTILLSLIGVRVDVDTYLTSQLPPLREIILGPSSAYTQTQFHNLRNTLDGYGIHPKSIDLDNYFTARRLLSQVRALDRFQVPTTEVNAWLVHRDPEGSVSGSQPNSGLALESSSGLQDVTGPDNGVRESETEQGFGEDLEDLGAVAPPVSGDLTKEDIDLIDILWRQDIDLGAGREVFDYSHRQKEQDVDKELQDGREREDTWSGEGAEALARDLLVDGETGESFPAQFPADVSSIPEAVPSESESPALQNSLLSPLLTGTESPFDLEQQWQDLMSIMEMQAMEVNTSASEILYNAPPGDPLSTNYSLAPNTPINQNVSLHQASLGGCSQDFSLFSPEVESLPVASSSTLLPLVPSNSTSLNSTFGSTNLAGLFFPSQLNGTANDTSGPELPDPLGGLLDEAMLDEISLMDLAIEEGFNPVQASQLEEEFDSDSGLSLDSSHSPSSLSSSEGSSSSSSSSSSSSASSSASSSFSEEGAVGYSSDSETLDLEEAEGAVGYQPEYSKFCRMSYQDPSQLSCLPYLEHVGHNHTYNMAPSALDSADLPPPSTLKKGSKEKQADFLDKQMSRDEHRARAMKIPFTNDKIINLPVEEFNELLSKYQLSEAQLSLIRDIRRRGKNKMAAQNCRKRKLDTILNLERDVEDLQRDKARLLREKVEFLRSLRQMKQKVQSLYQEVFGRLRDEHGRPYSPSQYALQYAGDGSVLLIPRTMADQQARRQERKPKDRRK

Q: How did the binding [1] turn out when “Nuclear factor erythroid 2-like 1 (Nrf1/NFE2L1), endogenous in mouse bone marrow-derived macrophages (from UniProt Q61985 1-741)” was run?
A: binds

Q: And the binding [2]?
A: binds

Q: With “Nrf1 protein of the GST pull-down assay (from UniProt Q61985 104-741)” as the substance, how does the binding [3] read?
A: binds

From paper PMC12712952
